{"source": "PubChem BioAssay AID686938 (Drosophila RNAi Screening Center, 2013)", "screen": "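Fly genes required for calcium entry once internal stores are emptied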 (primary screen)", "system": "Drosophila S2R+ cells", "reagent": "long dsRNA against Drosophila genes, about 0.25 µg dsRNA per well, roughly 10,000 cells", "duration": "5 days of knock-down before the calcium assay", "treatment": "thapsigargin (SERCA pump blocker) to empty calcium stores; entry signal taken 4 min after adding it", "detection": "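Per-well fluo-4 fluorescence in two replicates, unnormalised, measured in resting cells and 4 min after store depletion by the SERCA blocker thapsigargin; ratio of the two present in few wells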", "scale": "calcium entry signal: higher = stronger calcium signal after store depletion; resting calcium signal: higher = higher resting calcium signal", "units": "calcium entry signal in fluorescence units; resting calcium signal in fluorescence units", "active means": "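Hit if the duplicate-averaged plate z-score for entry over resting signal is under −3; wells with weak total dye signal (Fmax z < −2) or more than 5 off-targets removed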", "meaning of the calls": "active = strongly reduced calcium entry; inactive = no strong reduction", "note": "In all, the deposit lists about 23,000 reagents; below is a random part of those with a known target gene and a result. Of all reagents, 75 (0.33%) were called active. 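Raw plate signals without normalisation; calls rest on plate z-scores that were not deposited; ratio present for only 364 wells.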 Unmarked entries are inactive. Reagents against one gene are numbered here. Not stated in the record: the dose of the treatment."}
{"Target gene":"RfC4 (GeneID 38492)","dsRNA no.":1,"calcium entry signal, replicate 1":4.52e7,"calcium entry signal, replicate 2":3.96e7,"resting calcium signal, replicate 1":3.26e7,"resting calcium signal, replicate 2":1.83e7}
{"Target gene":"CG34026 (GeneID 3885569)","dsRNA no.":1,"calcium entry signal, replicate 1":2.44e7,"calcium entry signal, replicate 2":3.38e7,"resting calcium signal, replicate 1":1.22e7,"resting calcium signal, replicate 2":1.50e7}
{"Target gene":"CG18536 (GeneID 37093)","dsRNA no.":1,"calcium entry signal, replicate 1":4.63e7,"calcium entry signal, replicate 2":7.08e7,"resting calcium signal, replicate 1":1.96e7,"resting calcium signal, replicate 2":2.94e7}
{"Target gene":"Pc (GeneID 40358)","dsRNA no.":1,"calcium entry signal, replicate 1":1.81e7,"calcium entry signal, replicate 2":2.97e7,"resting calcium signal, replicate 1":9.73e6,"resting calcium signal, replicate 2":1.53e7}
{"Target gene":"CG42673 (GeneID 39111)","dsRNA no.":1,"calcium entry signal, replicate 1":4.75e7,"calcium entry signal, replicate 2":4.44e7,"resting calcium signal, replicate 1":2.60e7,"resting calcium signal, replicate 2":2.00e7}
{"Target gene":"CG42673 (GeneID 39111)","dsRNA no.":2,"calcium entry signal, replicate 1":2.84e7,"calcium entry signal, replicate 2":4.08e7,"resting calcium signal, replicate 1":1.89e7,"resting calcium signal, replicate 2":2.45e7}
{"Target gene":"CG42673 (GeneID 39111)","dsRNA no.":3,"calcium entry signal, replicate 1":2.61e7,"calcium entry signal, replicate 2":3.22e7,"resting calcium signal, replicate 1":1.33e7,"resting calcium signal, replicate 2":1.34e7}
{"Target gene":"CG42673 (GeneID 39111)","dsRNA no.":4,"calcium entry signal, replicate 1":2.37e7,"calcium entry signal, replicate 2":2.98e7,"resting calcium signal, replicate 1":1.23e7,"resting calcium signal, replicate 2":1.24e7}
{"Target gene":"CG42673 (GeneID 39111)","dsRNA no.":5,"calcium entry signal, replicate 1":3.44e7,"calcium entry signal, replicate 2":4.44e7,"resting calcium signal, replicate 1":1.62e7,"resting calcium signal, replicate 2":1.79e7}
{"Target gene":"CG42673 (GeneID 39111)","dsRNA no.":6,"calcium entry signal, replicate 1":2.79e7,"calcium entry signal, replicate 2":4.19e7,"resting calcium signal, replicate 1":1.53e7,"resting calcium signal, replicate 2":1.86e7}
{"Target gene":"RpL34a (GeneID 43169)","dsRNA no.":1,"calcium entry signal, replicate 1":2.65e7,"calcium entry signal, replicate 2":4.46e7,"resting calcium signal, replicate 1":1.61e7,"resting calcium signal, replicate 2":2.04e7}
{"Target gene":"Vps26 (GeneID 31144)","dsRNA no.":1,"calcium entry signal, replicate 1":2.97e7,"calcium entry signal, replicate 2":3.32e7,"resting calcium signal, replicate 1":1.48e7,"resting calcium signal, replicate 2":1.75e7}
{"Target gene":"CG9106 (GeneID 32454)","dsRNA no.":1,"calcium entry signal, replicate 1":3.21e7,"calcium entry signal, replicate 2":3.96e7,"resting calcium signal, replicate 1":1.56e7,"resting calcium signal, replicate 2":1.81e7}
{"Target gene":"toe (GeneID 39418)","dsRNA no.":1,"calcium entry signal, replicate 1":3.61e7,"calcium entry signal, replicate 2":4.56e7,"resting calcium signal, replicate 1":2.09e7,"resting calcium signal, replicate 2":1.96e7}
{"Target gene":"toe (GeneID 39418)","dsRNA no.":2,"calcium entry signal, replicate 1":3.34e7,"calcium entry signal, replicate 2":3.51e7,"resting calcium signal, replicate 1":1.79e7,"resting calcium signal, replicate 2":1.49e7}

Records listed so far whose target name starts with T or t (2):
{"Target gene":"toe (GeneID 39418)","dsRNA no.":1,"calcium entry signal, replicate 1":3.61e7,"calcium entry signal, replicate 2":4.56e7,"resting calcium signal, replicate 1":2.09e7,"resting calcium signal, replicate 2":1.96e7}
{"Target gene":"toe (GeneID 39418)","dsRNA no.":2,"calcium entry signal, replicate 1":3.34e7,"calcium entry signal, replicate 2":3.51e7,"resting calcium signal, replicate 1":1.79e7,"resting calcium signal, replicate 2":1.49e7}
